Assay results as given in PubChem BioAssay AID504444 (National Center for Advancing Translational Sciences (NCATS), 2011).
About 7,500 (2.1%) of roughly 360,000 compounds were called active. The inconclusive results got no clear call from the source; some entries with a clear call stand among them for comparison. Calls come from the whole dose curve; as a rule, active = well fitted inhibition curve with a large enough effect; inconclusive = small, poorly fitted or top-dose-only effect, or effect the other way; inactive = flat fitted curve, though single readings scatter. Potencies of inconclusive entries are doubtful fits and often do not repeat.

Experiment: Nrf2 qHTS screen for inhibitors; note: nearly all actives have a fitted effect of over 60% in size
Details: A549 ARE-Fluc reporter, luciferase luminescence, 18-24 h; series mostly up to 46 µM
Summary of the method: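 A549 ARE_Fluc cells (5000/well, 5% FBS OPTI-MEM) pre-incubated 2 h, then treated with compounds 18-24 h at 37C/5% CO2 in concentration-response. CellTiter-Fluor viability read first; BugLite luciferase luminescence after 15 min at room temperature gives Nrf2 activity.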
Potency is the fitted concentration of half-maximal effect.

SMILES	Potency
CC1CC(C)(C)CC2(C1)NC(=O)N(CC(=O)N1CCN(Cc3ccc(C#N)cc3)CC1)C2=O (stereo not given)	active: 1.84 µM
O=C(CSCC(=O)N1CCCc2ccccc21)Nc1nc(-c2ccccc2)cs1	inconclusive: 1.3 µM [falling, full curve, poor fit]
CC1(C)CN=C(N(C(=O)Nc2ccccc2)c2ccccc2F)S1	inactive
Cc1cc(C(=O)Nc2ccc(F)cc2C)cs1	inconclusive: 11.6 µM [activator, partial curve, poor fit]
Cc1[nH]n(-c2ccccc2)c(=O)c1/C=N/O	inactive
C[C@H]1CN([C@@H](C)CO)C(=O)Cc2cc(NS(=O)(=O)c3cccs3)ccc2O[C@H]1CN(C)S(=O)(=O)c1cn(C)cn1	inconclusive: 0.0065 µM [falling, full curve, poor fit]
CCOc1cc(CNCc2cc(OC)cc(OC)c2)ccc1OC	active: 8.2 µM
Cc1ccccc1S(=O)(=O)N1[C@@H](c2ccc(Br)cc2)C(C(=O)O)=CC[C@H]1c1ccc(Cl)cc1	inconclusive: 20.6 µM [falling, single point]
O=C(O)c1ccc(Cl)c(S(=O)(=O)N(Cc2ccccc2)c2ccc(Cl)cc2)c1	inconclusive: 20.6 µM [activator, partial curve, poor fit]
Cc1cc(N2CCN(S(=O)(=O)c3ccc(Br)cc3)CC2)n2ncnc2n1	inconclusive: 7.31 µM [falling, partial curve]
Cc1ccc(C)c(NC(=S)NC(NC(=O)OCc2ccccc2)C(Cl)(Cl)Cl)c1 (stereo not given)	inconclusive: 0.517 µM [falling, partial curve, poor fit]
O=C(c1ccc2c(c1)OCCO2)C1CCN(S(=O)(=O)c2ccccc2F)CC1	active: 13 µM
CCc1ccc(-c2csc(NC(=O)C3CCCO3)c2C(=O)OC(C)C)cc1 (stereo not given)	inconclusive: 14.6 µM [falling, single point]
O=C(NNC(=O)c1cc(-c2ccccc2)nc2ccccc12)c1csc(N2CCOCC2)n1	inactive
Cc1ccc(C(c2nnnn2CS(=O)(=O)c2ccc(C)cc2)N2CCN(c3ncccn3)CC2)cc1 (stereo not given)	inconclusive: 1.84 µM [falling, full curve]
CCOC(=O)N1CCc2c(sc3c2c(=O)n(CCc2ccccc2)c(=O)n3Cc2ccc(F)cc2)C1	inactive
O=C(CSc1nc(-c2ccccc2)no1)N1CCCCC1	inconclusive: 4.61 µM [activator, single point]
Oc1ccccc1C1C=C(c2ccc3c(c2)OCO3)NC(c2ccc(Br)cc2)N1 (stereo not given)	inactive
N#CC(C#N)=C/C=C(\Nc1ccc(Cl)cc1)c1ccc(Cl)cc1	inactive
COc1ccc(C(=O)NNC(=S)NC(=O)c2ccc(Br)o2)cc1OC	inconclusive: 16.4 µM [falling, partial curve, poor fit]
Cc1cccc(Nc2nnc(SCC(=O)NC3CCCc4ccccc43)s2)c1 (stereo not given)	inconclusive: 20.6 µM [falling, single point]
Cc1ccc(Cn2nnc(C(=O)Nc3ccc(F)c(F)c3)c2N)cc1	inconclusive: 3.66 µM [activator, partial curve, poor fit]

SMILES	Potency
O=C(CCc1cn2ccccc2n1)NC1CCCc2c1cnn2-c1ccccc1F (stereo not given)	inactive
Cc1ccc(S(=O)(=O)N2C[C@@H]3CCCC[C@@H]3[C@@H](C)[C@H]2c2cn(Cc3ccccc3)c3ccc(F)cc23)cc1	active: 2.91 µM
COc1ccc(OC)c(NC(=O)Cc2coc3ccc4ccccc4c23)c1	inconclusive: 15.8 µM [falling, single point]
N/C(=N\OC(=O)c1ccco1)c1cccc(Br)c1	inconclusive: 23.1 µM [activator, partial curve]
CN(C(=O)CSc1ncnc2sc(-c3ccccc3)cc12)C1CCS(=O)(=O)C1 (stereo not given)	inconclusive: 18.4 µM [falling, partial curve, poor fit]
CCOC(=O)N1CCC(Nc2cccc(SC)c2)CC1	inconclusive: 16.4 µM [falling, single point]
Cc1cc(C)cc(OC(C)C(=O)Nc2ccccc2C(=O)NCc2cccnc2)c1 (stereo not given)	inconclusive: 29.1 µM [falling, single point]
CCC/C(O)=C1\C(=O)CC(c2ccccc2)CC1=NCCc1c(C)[nH]c2ccccc12 (stereo not given)	inconclusive: 16.4 µM [falling, partial curve]
Cc1ccc(NC(=O)CN(C)S(=O)(=O)c2ccc3nc(C)sc3c2)c(C)c1	inactive
CCN(CC(=O)Nc1c(F)cccc1F)C(=O)C1COc2ccccc2O1 (stereo not given)	inconclusive: 3.66 µM [falling, single point]
CC(=O)Oc1ccc2c(=O)oc(-c3ccc([N+](=O)[O-])cc3)nc2c1	inconclusive: 20.6 µM [activator, partial curve, poor fit]
C=CCn1c(SCC(=O)c2ccc(Cl)s2)nc2ccccc2c1=O	inconclusive: 23.1 µM [falling, single point]
O=C(O)CC/C(=N\Nc1ccc([N+](=O)[O-])cc1S(=O)(=O)N1CCOCC1)c1cccs1	inactive
CC(=O)Nc1cccc(-c2nnc3n2CC(C)S3)c1 (stereo not given)	inconclusive: 23.1 µM [falling, single point]
O=C(CSC1=NC2(CCCCCC2)N=C1c1ccccc1)Nc1ccc2c(c1)OCCO2	inconclusive: 29.1 µM [falling, single point]
COc1ccc(N(CC(=O)N2CCN(Cc3ccccc3)CC2)S(=O)(=O)c2ccccc2)cc1	inconclusive: 3.66 µM [activator, full curve, poor fit]
Cc1ccc(C2=NN(CC(=O)NCCN(C)C)C(=O)CC2)cc1	inconclusive: 5.8 µM [activator, partial curve]
CCCc1nc2oc3ccccc3c(=O)c2c(=O)n1-c1ccccc1	inconclusive: 11.6 µM [activator, partial curve]
COc1ccc2nc(SC(C)C(=O)NCC(=O)Nc3ccc(F)c(F)c3F)[nH]c2c1 (stereo not given)	inactive
C[C@@H]1CN([C@H](C)CO)C(=O)c2cc(NC(=O)Nc3ccc(C(F)(F)F)cc3)ccc2O[C@H]1CN(C)C(=O)Nc1ccc(F)cc1	inconclusive: 18.4 µM [falling, partial curve]
OCCC1CN(Cc2c(F)cccc2Cl)CCN1C1CCCCC1 (stereo not given)	inactive
Cc1c(Cl)cccc1NC(=O)CN1C(=O)COc2ccc(S(=O)(=O)Nc3ccccc3)cc21	inactive

SMILES	Potency
COc1ccc(-c2c([C@H]3[C@@H]4C=CCC[C@@]4(C)C(=O)N3Cc3ccccc3)ccc3ccccc23)cc1OC	inconclusive: 18.4 µM [falling, single point]
O=C(Nc1ccc(Br)cc1)c1cccc(S(=O)(=O)Nc2cnc3ccccc3c2)c1	active: 2.91 µM
COCCSc1nnc(NC(=O)Cc2ccc(OC)c(OC)c2)s1	inconclusive: 0.0052 µM [falling, full curve, poor fit]
FC(F)(F)COc1ccc(-c2nnc(SCc3ccccc3)o2)cn1	inactive
CN(C)C(=O)c1ccc(NC(=O)c2cccc(S(=O)(=O)N3CCN(Cc4ccccc4)CC3)c2)cc1	active: 18.4 µM
O=C(CCCc1c[nH]c2ccccc12)NCc1ccccc1F	inconclusive: 16.4 µM [activator, partial curve, poor fit]
O=C(NC1(Cc2ccccc2)CCN(Cc2ccc(-c3ccccc3)cc2)C1=O)c1ccccc1 (stereo not given)	inconclusive: 29.1 µM [falling, single point]
CCC(C)Nc1c2c(nc3c(-c4ccccc4)c(C)nn13)CCC2 (stereo not given)	inconclusive: 11.6 µM [falling, partial curve, poor fit]
CC(C)COC(=O)c1cccc2c1-c1ccccc1/C2=N\O	inconclusive: 23.1 µM [falling, single point]
CC1CCN(C(=O)COC(=O)c2cc(=O)[nH]c3ccccc23)CC1	inconclusive: 29.1 µM [activator, single point]
CCCOC(=O)CSc1nnc2ccc3ccccc3n12	inactive
CC(=O)Nc1ncc(Cc2cccc(Cl)c2)s1	inconclusive: 8.2 µM [activator, partial curve, poor fit]
CN(C)S(=O)(=O)c1ccc(NC(=O)CSc2nc3ccccc3n2-c2ccccc2)cc1	active: 20.6 µM
COc1ccccc1C(=O)Nc1nnc(SCC(=O)NCc2ccco2)s1	inconclusive: 0.58 µM [activator, full curve]
COc1cccc(-n2c(SCC(=O)NC3CCCCC3)nc3n[nH]c(C)c3c2=N)c1	inconclusive: 14.6 µM [falling, partial curve, poor fit]
COc1ccc(-c2cc(C(F)(F)F)n3nc(C(=O)N4CCN5CCCC5C4)cc3n2)cc1OC (stereo not given)	inconclusive: 32.6 µM [activator, single point]
Clc1nssc1=Nc1ccc(Br)cc1	inconclusive: 32.6 µM [falling, single point]
CC(=O)c1sc(NC(=O)COc2ccc(Cl)cc2C)nc1C	inconclusive: 2.31 µM [activator, full curve, poor fit]
Cc1cc(N2CCCC2=O)ccc1S(=O)(=O)Nc1c(C)nn(C)c1C	inconclusive: 13 µM [falling, partial curve, poor fit]
Cc1c(NS(=O)(=O)c2cccc(C(=O)Nc3ccc(SC(F)F)cc3)c2)c(=O)n(-c2ccccc2)n1C	inconclusive: 18.4 µM [falling, partial curve]
CC(C)(C)c1ccc(S(=O)(=O)N2CCN(C(=O)C3=COCCO3)CC2)cc1	inconclusive: 11.6 µM [falling, partial curve, poor fit]

Four entries already listed, arranged by length of the SMILES, largest number first:
SMILES	Potency
Cc1c(NS(=O)(=O)c2cccc(C(=O)Nc3ccc(SC(F)F)cc3)c2)c(=O)n(-c2ccccc2)n1C	inconclusive: 18.4 µM [falling, partial curve]
COc1ccc(-c2cc(C(F)(F)F)n3nc(C(=O)N4CCN5CCCC5C4)cc3n2)cc1OC (stereo not given)	inconclusive: 32.6 µM [activator, single point]
CCC(C)Nc1c2c(nc3c(-c4ccccc4)c(C)nn13)CCC2 (stereo not given)	inconclusive: 11.6 µM [falling, partial curve, poor fit]
CC(=O)Nc1ncc(Cc2cccc(Cl)c2)s1	inconclusive: 8.2 µM [activator, partial curve, poor fit]
